The results in this text go back to paper PMC7819943, “Rice protein-binding microarrays: a tool to detect cis-acting elements near promoter regions in rice”.

This is one part of the list.

The assay has as its target T1, OsSMF1 (Oryza sativa, UniProt Q6ZLB0 1-436).
T1 sequence: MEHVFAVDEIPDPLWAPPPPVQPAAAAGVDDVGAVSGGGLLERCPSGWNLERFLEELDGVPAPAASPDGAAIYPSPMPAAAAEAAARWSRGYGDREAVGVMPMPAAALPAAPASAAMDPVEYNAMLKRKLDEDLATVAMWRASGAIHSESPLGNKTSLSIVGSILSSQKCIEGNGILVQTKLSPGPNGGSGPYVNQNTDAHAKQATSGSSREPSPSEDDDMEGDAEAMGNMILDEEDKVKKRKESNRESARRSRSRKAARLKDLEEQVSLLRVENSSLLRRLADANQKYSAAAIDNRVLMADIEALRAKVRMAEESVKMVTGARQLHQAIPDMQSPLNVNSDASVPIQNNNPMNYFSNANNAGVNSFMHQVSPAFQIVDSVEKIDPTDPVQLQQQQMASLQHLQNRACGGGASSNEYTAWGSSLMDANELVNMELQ
In words: protein-binding microarray (RPBM); PBS, 2% BSA, 51.3 ng/ul salmon testes DNA, 50 uM zinc acetate, 200 nM TF, 25 C, 1 h; high values mean tight binding. The settings on record: protein: recombinant; tags: N-terminal polyhistidine and DsRed monomer fusion (pET32a); chain copies: 2; label: CyDye5-dUTP incorporated in the synthesized complementary strand; 3' TTTTT single-stranded linker to array surface; dsDNA, one strand shown. The method in brief:
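Binding signal here means per-feature fluorescence intensity in arbitrary units. The values were read on an Axon 4000B scanner after a custom Agilent array, double-stranded by primer extension with Cy5-dUTP, was incubated with 200 nM protein at 25 °C for 1 h in PBS with 2% BSA, salmon testes DNA and 50 µM zinc acetate, then washed. The proteins were transcription factors with an N-terminal polyhistidine tag and DsRed, expressed in E. coli BL21-CodonPlus and purified on Ni–NTA.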
Regarding “TTCTATCTTCTCTCCAAAAGTGACATGGTATCAGAGCAAGCGGAGTCACCTAGTGCAG”, the binding signal is 3530 fluorescence intensity (a.u.). “GAATTTACAAATGAATCAGCATGCAGTCCTTGTGGCGATACGGAGTCACCTAGTGCAG”: the binding signal was 3660 fluorescence intensity (a.u.). The figure for “GGTTTTCTAAGCTGACTTGACTAGTTGATTTGATGGCCCCCGGAGTCACCTAGTGCAG” is 4020 fluorescence intensity (a.u.). Turning to “ATATATATATATATATATATATATATATATATGCGCAGAGCGGAGTCACCTAGTGCAG”, the binding signal was 3240 fluorescence intensity (a.u.). Under “TACAGGGTATGACTGTGCTGGATATGACTGTGCTGTTACACGGAGTCACCTAGTGCAG” stands 4580 fluorescence intensity (a.u.); under “GCACATGCATGGCTTCACATCGAATTGAATGAGTTGGCGTCGGAGTCACCTAGTGCAG”, 4700 fluorescence intensity (a.u.).

With “GCACTTTGTCAAGGCTGTGGTGGATGTGTTTGCTGATCAACGGAGTCACCTAGTGCAG”, the binding signal was 3150 fluorescence intensity (a.u.).

Take “CGGATCGAATTGCCACGTAAGCGGCACGTCAGTGCCATGTCGGAGTCACCTAGTGCAG”: the binding signal was 20000 fluorescence intensity (a.u.). The figure for “CGTACTTTCATCGTGCGATACCGTCCACGACGTCACCATGCGGAGTCACCTAGTGCAG” is 5520 fluorescence intensity (a.u.). The figure for “TATAAATTAAAATTTGGCTTATAACCCCAAGCATAAACCTCGGAGTCACCTAGTGCAG” is 37500 fluorescence intensity (a.u.); for “TTCAGCAAAGGATTTCATGTGCCCCACCATATCCTTAAGACGGAGTCACCTAGTGCAG” it is 31000 fluorescence intensity (a.u.); for “AGCTGATGCACTGCCGGTTCTGCCTCTGCCTGCCTCGCCACGGAGTCACCTAGTGCAG” it is 3360 fluorescence intensity (a.u.). “GTTTGGACTTTGAATCTTGACTCATATATACAGCCATCTACGGAGTCACCTAGTGCAG”: the binding signal was 4140 fluorescence intensity (a.u.). For the sequence “GGCGTGTTTGACGAAATGCCGCGCCGGGACGACGACGCCACGGAGTCACCTAGTGCAG”, the binding signal is 3350 fluorescence intensity (a.u.). Under “ATGTTTGAGCATGCAGCAAAGACAGATCTAACACTCAAGCCGGAGTCACCTAGTGCAG” stands 3970 fluorescence intensity (a.u.). Under “TGTTTAGACGCGTAATCCGCATGAACAATCCTGTCTCGATCGGAGTCACCTAGTGCAG” stands 3550 fluorescence intensity (a.u.). With “CTTCTAGCTGACACCTGTGCGCCGCCGCCTAATTTCAACTCGGAGTCACCTAGTGCAG”, the binding signal was 3930 fluorescence intensity (a.u.). Turning to “CCCACATTTTCCCGGCCGTCGTTCCCGCCGACGAGCTCTTCGGAGTCACCTAGTGCAG”, the binding signal is 3190 fluorescence intensity (a.u.).

For “AGAGTGAGAGAGAAGTGAGAGAGAGTGTGTGTGAGAGAGACGGAGTCACCTAGTGCAG”, the binding signal is 5620 fluorescence intensity (a.u.). Regarding “ATCATGTGAACTTCCCTATGACATGCCACATCAAATATTGCGGAGTCACCTAGTGCAG”, the binding signal is 3310 fluorescence intensity (a.u.).

As to “CTAAACACGTCCTATCATGTCACGTAGATAATATGACACGCGGAGTCACCTAGTGCAG”, the binding signal was 5080 fluorescence intensity (a.u.). Under “GAATATCATCATATGCTGCGTGTCTCCCGTCAGTCCCGTGCGGAGTCACCTAGTGCAG” stands 4290 fluorescence intensity (a.u.). Under “GCCGCTGATTCTCGCCCGCCCACGTCGCCAGCGACGTCTGCGGAGTCACCTAGTGCAG” stands 5280 fluorescence intensity (a.u.); under “GGTCAATTACCGGTTGATCGAGCATCGTTTCCGAAGAGATCGGAGTCACCTAGTGCAG”, 4550 fluorescence intensity (a.u.). Under “GCCATCGCCATCGCCATCGCCGTCGCGCGACGACGTGTTGCGGAGTCACCTAGTGCAG” stands 4670 fluorescence intensity (a.u.). Regarding “ACGGCGCCGTGTGCCACGTCGGCTTGCCGCCCTTTGAAAGCGGAGTCACCTAGTGCAG”, the binding signal was 17200 fluorescence intensity (a.u.).

With “TCCGAACATCCGCGTGTCTGCTTCTGCGCCAGCCCGAGCCCGGAGTCACCTAGTGCAG”, the binding signal is 44300 fluorescence intensity (a.u.). Under “CCGTATGCTCCGTATGTTCGAGGATCCCTTTCCGACCGCGCGGAGTCACCTAGTGCAG” stands 3430 fluorescence intensity (a.u.); under “CATCAAATCCAACGGCCCCACCTCACGTCACGATCTCACGCGGAGTCACCTAGTGCAG”, 3340 fluorescence intensity (a.u.).

Consider “CACCATTATTGCCAATTATCCTTGCTTGCGTGGTAGAGTACGGAGTCACCTAGTGCAG”, for which the binding signal is 5860 fluorescence intensity (a.u.).

“CAAAACATGCCGATTATTATTGACTGGATTTAGATAGACACGGAGTCACCTAGTGCAG”: the binding signal is 3840 fluorescence intensity (a.u.). Under “TATATAAGTCAAACCACAGCCTCCACGCAATACACGTGAACGGAGTCACCTAGTGCAG” stands 4440 fluorescence intensity (a.u.); under “AAATTGCTGAGACGCGATTACACCGACTCTGGTCGTCTCACGGAGTCACCTAGTGCAG”, 3210 fluorescence intensity (a.u.). Under “GACAGGCCGCCTGTTGCCACCTAACCCGTGATCTGACCGGCGGAGTCACCTAGTGCAG” stands 3590 fluorescence intensity (a.u.). Under “GCTCGCCGCCGACTCCACCTCCCCGTCGCGGCGGCATCGACGGAGTCACCTAGTGCAG” stands 3930 fluorescence intensity (a.u.); under “CACAGTAGTTACACCTCATTTACACCCCACTTACATATGTCGGAGTCACCTAGTGCAG”, 3450 fluorescence intensity (a.u.); under “CTGCTAAATGGCACGTTTCGTGTGAAAACTTTATATAGAACGGAGTCACCTAGTGCAG”, 3410 fluorescence intensity (a.u.). Regarding “CGTCCCTTGGACGTCATCTTCTCCTCACGTGCATTGCCTCCGGAGTCACCTAGTGCAG”, the binding signal was 4360 fluorescence intensity (a.u.).

Turning to “CTTGCCCAAACGAAGGAGAATTTTGAGAGAGAGAAGGAAGCGGAGTCACCTAGTGCAG”, the binding signal was 25900 fluorescence intensity (a.u.).

For “GGCCGCTCGTTCGGGCGGGTGACAAGGCGAAGGAGGGAAGCGGAGTCACCTAGTGCAG”, the binding signal is 5020 fluorescence intensity (a.u.). Under “CAACACCCAACCCCAATTGGTCGCGGTGGGTCGGACGGACCGGAGTCACCTAGTGCAG” stands 34900 fluorescence intensity (a.u.); under “AGGAGGATATAGCACCAACCAAACTGTGCACCTAACATTGCGGAGTCACCTAGTGCAG”, 24100 fluorescence intensity (a.u.).
